{"source": "patent EP4818191A1", "about": "“PEPTIDE AND CONJUGATE CONTAINING SAID PEPTIDE” (PeptiDream Inc., priority 2023, dated 2025)", "target": "T1, human CA9 (Homo sapiens, UniProt Q16790)", "T1 construct": "purchased SinoBiological", "assay": "Intermolecular interaction against human CA9 by surface plasmon resonance (SPR)", "format": "binding", "details": "Human CA9-Fc captured on Protein A sensor chip, Single Cycle Kinetics, KD values only in Tables 7, 8 (images)", "method": "The intermolecular interactions of the peptides against human CA9 protein were examined by surface plasmon resonance (SPR) for the various peptides or conjugates synthesized in Examples 1 and 2, according to the methods described below. Specific test methods are described below.\nProtein A sensor chip (Cytiva) was inserted into BiacoreT200 (Cytiva) and primed with running buffer: 1× HBS-P+ (Cytiva), 1.0 % DMSO (Fujifilm Wako Pure Chemical Corporation), and 50 µM zinc acetate dihydrate (Hampton research), and equilibrated at a flow rate of 30 µL/min. 50 nM Human CA9-Fc (SinoBiological) diluted with running buffer was reacted at a flow rate of 5 µL/min for 60 seconds and captured into a flow cell.\nA solution containing each peptide or conjugate synthesized in Example 1 or 2 and prepared at 1 mM in DMSO solution was diluted with running buffer to a final concentration of 100 nM. Then, the peptide or conjugate solutions at 25 nM and 5 nM were further prepared. Depending on the affinity of the peptide or conjugate, the solution was diluted with running buffer to a final concentration of 40 nM. […]\nUsing the above samples, the kinetics of each peptide or conjugate against human CA9 was obtained by SPR measurement. […] The binding of each peptide or conjugate to human CA9 was evaluated by performing least-squares curve fitting on the obtained sensorgram to calculate the KD value.", "note": "Part of at least one peptide drawing is inferred or uncertain, most often the ends. Where a SMILES comes first, the peptide text is derived from it. Bridges are numbered along the chain shown (N, C = ends). [ ]: non-standard residue; d: D form. 3Pal(6-NH2) = Nc1ccc(C[C@H](N)C(=O)O)cn1; Gly(NCH2CH2Ph) = O=C(O)CNCCc1ccccc1; Ahp(2) = CCCCC[C@H](N)C(=O)O", "data": [{"smiles": "CCCCC[C@@H]1NC(=O)[C@H](Cc2ccc(N)nc2)NC(=O)[C@H](Cc2c[nH]cn2)NC(=O)CN(CCc2ccccc2)C(=O)[C@H](CCCCC)NC(=O)CN(CCc2ccccc2)C(=O)[C@H](CO)NC(=O)[C@H](Cc2ccc(N)nc2)NC(=O)[C@H]([C@@H](C)CC)NC(=O)[C@@H](C)NC(=O)CSC[C@@H](C(=O)NCC(N)=O)NC(=O)[C@H](Cc2ccc(O)cc2)NC(=O)CNC1=O", "note": "[SEQ ID No. 2] ({CH2CO}-[dA]I[3Pal(6-NH2)]S[Gly(NCH2CH2Ph)][Ahp(2)][Gly(NCH2CH2Ph)]H[3Pal(6-NH2)][Ahp(2)]GYCG-NH2; thioether N-13)", "values": [{"measurement": "activity of binding to human CA9 (CA9 binding ability)", "value": "have CA9 binding ability"}]}]}
